Experimental data published in publication PMC12203914.
Results are given in words; binding and its absence hold for the method and conditions named. In cells and extracts the contact can be indirect. Some results given as binding are weak or reduced against the parent protein; the word gives no strength.

Protein sequences, listed by entry. Tags and fused reporters are not part of them.
UniProt P09874: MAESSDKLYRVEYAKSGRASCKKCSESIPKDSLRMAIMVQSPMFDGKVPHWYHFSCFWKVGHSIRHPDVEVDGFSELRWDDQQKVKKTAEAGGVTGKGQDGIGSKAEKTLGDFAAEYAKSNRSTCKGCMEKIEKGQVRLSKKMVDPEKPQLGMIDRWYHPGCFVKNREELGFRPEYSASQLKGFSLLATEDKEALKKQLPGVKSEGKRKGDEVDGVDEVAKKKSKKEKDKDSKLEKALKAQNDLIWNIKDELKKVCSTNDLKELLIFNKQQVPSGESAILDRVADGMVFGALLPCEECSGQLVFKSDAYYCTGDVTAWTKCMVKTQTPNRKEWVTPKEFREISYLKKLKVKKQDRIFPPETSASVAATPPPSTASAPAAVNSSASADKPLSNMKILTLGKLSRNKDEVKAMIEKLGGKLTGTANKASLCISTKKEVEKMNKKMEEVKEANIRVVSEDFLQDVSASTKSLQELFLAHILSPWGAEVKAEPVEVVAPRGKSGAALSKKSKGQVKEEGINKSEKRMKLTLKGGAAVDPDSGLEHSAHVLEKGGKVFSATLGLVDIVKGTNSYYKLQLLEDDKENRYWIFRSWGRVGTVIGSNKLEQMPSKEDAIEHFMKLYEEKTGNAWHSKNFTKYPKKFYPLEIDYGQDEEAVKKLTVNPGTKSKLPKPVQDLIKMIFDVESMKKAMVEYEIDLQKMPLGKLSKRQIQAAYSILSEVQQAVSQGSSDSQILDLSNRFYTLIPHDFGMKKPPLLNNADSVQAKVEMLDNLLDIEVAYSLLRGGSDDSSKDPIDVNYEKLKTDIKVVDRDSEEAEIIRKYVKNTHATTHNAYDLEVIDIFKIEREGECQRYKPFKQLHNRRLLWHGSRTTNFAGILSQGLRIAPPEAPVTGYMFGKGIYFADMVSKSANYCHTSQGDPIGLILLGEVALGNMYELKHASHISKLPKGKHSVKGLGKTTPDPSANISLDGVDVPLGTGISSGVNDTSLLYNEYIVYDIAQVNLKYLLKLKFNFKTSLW

What was measured:
YFP-tagged PARP1 = YFP-tagged PARP1 (UniProt P09874); assay: co-IP; GFP-Trap beads on lysates (with Pierce Universal Nuclease) of YFP-PARP1-transfected HEK293T cells, wild type or YBX1-/-, untreated or 10 Gy IR; blot for YBX1
[1] = biological target: PARP1 (human (endogenous in HeLa, U2OS, HEK293T)) (UniProt P09874); assay: proximity ligation; Duolink PLA on fixed, permeabilised cells (HeLa, U2OS, HEK293T) with antibodies against the two proteins; untreated or 10 Gy IR; also in YBX1-/- and Y3 ASO-treated cells
[2] = biological target: Ser139-phosphorylated histone H2AX (γH2AX) (human (endogenous in U2OS, HEK293T, HeLa)) (UniProt P16104); assay: as above

Measured: binding

Y-Box Binding Protein 1 (YBX1) (from UniProt P67809 1-324)
binds: all assays above
